Results are given in words; binding and its absence hold for the method and conditions named. Binding seen in cells or lysates may run through a third protein. A yes stands for co-enrichment or nearness to the bait. Other partners may have been found. Where a sequence is shown, tags or fusion partners need not be part of it.
Biological target: T1, GST-Bre1 (yeast (Saccharomyces cerevisiae)) (UniProt Q07457)
T1 sequence: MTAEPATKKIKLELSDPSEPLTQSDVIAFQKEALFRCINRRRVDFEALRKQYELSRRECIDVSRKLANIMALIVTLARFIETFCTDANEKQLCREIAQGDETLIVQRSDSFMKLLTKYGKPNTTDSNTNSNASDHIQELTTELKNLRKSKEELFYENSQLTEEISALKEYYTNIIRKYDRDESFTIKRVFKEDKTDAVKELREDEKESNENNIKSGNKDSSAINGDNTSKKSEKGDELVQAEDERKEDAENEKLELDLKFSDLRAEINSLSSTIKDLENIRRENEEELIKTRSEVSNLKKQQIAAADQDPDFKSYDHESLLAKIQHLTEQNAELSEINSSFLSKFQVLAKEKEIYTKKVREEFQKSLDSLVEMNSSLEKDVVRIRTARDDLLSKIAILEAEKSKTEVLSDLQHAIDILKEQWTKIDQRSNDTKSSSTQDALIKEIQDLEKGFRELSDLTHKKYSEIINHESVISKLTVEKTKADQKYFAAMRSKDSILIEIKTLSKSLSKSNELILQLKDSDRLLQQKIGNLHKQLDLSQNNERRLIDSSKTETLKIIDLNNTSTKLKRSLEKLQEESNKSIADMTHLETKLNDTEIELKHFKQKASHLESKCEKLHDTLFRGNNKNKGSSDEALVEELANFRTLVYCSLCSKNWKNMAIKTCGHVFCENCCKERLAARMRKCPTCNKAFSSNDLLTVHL
Test: affinity purification with mass spectrometry; purified recombinant GST-Bre1 on glutathione agarose beads incubated with lysate of yeast cells treated with 0.1% MMS, 4 °C overnight; washes with lysis buffer containing 200 mM NaCl; purified GST as control; only the target purified

The chains behind the UniProt entries cited, without tags or fusion partners.
UniProt P25454: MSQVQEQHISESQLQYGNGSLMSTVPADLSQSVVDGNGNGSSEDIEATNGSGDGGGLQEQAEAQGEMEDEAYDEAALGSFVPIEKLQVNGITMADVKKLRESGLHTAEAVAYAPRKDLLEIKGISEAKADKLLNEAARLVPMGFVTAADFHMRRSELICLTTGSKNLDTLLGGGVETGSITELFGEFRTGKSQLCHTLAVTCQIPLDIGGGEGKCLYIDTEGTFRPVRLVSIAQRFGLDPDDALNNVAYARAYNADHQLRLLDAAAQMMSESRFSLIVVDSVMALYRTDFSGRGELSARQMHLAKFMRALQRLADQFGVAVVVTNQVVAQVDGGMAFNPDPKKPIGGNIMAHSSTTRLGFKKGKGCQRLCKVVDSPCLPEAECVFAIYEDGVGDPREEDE

Rad51 (in lysate of MMS-treated yeast cells) (from UniProt P25454 1-400)
binding: binds

From article PMC10213050
